No constants are given. Whether binding was seen depends on the method and setting. For part of these data: Binding can be weak; no strength is given. For part of these data: Sequences can lack the tags named with a protein.
Experiments:
[1] = target: T1, Strep II-CPK32 (Arabidopsis) (UniProt Q6NLQ6); assay: pull-down; Strep II-CPK32 as bait, FCA-His fusion proteins as prey; blots with anti-Strep II and anti-His antibodies; both purified
T1 sequence: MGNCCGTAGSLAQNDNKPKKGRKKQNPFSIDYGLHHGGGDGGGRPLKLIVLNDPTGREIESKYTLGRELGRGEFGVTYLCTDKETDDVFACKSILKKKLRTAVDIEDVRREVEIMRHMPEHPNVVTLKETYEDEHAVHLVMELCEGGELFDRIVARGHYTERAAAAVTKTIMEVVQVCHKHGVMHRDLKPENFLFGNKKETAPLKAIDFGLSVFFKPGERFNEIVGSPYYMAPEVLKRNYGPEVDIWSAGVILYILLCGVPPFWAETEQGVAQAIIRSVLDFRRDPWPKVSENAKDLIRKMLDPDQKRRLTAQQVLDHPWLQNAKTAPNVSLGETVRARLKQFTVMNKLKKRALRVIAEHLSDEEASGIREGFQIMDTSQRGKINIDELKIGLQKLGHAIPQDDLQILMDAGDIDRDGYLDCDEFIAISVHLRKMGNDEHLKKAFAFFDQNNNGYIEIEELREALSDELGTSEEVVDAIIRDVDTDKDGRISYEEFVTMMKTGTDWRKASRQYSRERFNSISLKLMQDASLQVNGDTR

[2] = target: T2, calcium-dependent protein kinase 32 (CPK32), yeast two-hybrid fusion (Arabidopsis) (UniProt Q6NLQ6); assay: two-hybrid; Yeast Two-Hybrid in yeast; CPK32/pDEST32 as negative control
T2 sequence: T1 sequence

Row | binding [1] | binding [2] | Substance
1 | binds | – | FCA-C-His (C-terminal region of FCA containing the WW domain) (Arabidopsis) (domain or fragment)
2 | – | no binding | FVE, yeast two-hybrid fusion (Arabidopsis)
3 | no binding | – | N-terminal region of FCA containing two RNA recognition motif (RRM) domains, His fusion (Arabidopsis) (domain or fragment)

From PMC8783668
